The results in this text go back to the supplement of paper PMC5249140, “Delineating Substrate Diversity of Disparate Short-Chain Dehydrogenase Reductase from Debaryomyces hansenii” (PLoS ONE, 2017).

Single values are uncertain, as repeats are few or missing.

For the test, the system named is DHK short-chain dehydrogenase reductase (Debaryomyces hansenii, Q6BTD7). Description: apparent turnover number kcat for ketone reduction (NADPH consumption, 100 uM substrate) (s-1); higher = faster reduction of the ketone by the enzyme. Conditions: substrate concentration 100 µM; NADPH 100 µM; pH 7.4; 25 °C. As to the method:
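Purified N-His6 DHK (unannotated SDR, Debaryomyces hansenii) was screened against a prochiral ketone library: 100 uM substrate, 100 uM NADPH, 1% BSA, 4% DMSO in 100 mM sodium phosphate / 100 mM NaCl pH 7.4 at 25 C, ~27 nM enzyme. Rate was followed by NADPH depletion at 340 nm and reported as apparent kcat (s-1) at a single substrate concentration; no replicates stated.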
Regarding `COc1ccc(O)c(C(=O)c2cnc3cc4c(cc3c2)OCO4)c1`, the “apparent turnover number kcat” value is 4.04. On to `Cc1[nH]c2ccccc2c1C(=O)COC(=O)C1=NNC(=O)CC1`, for which the “apparent turnover number kcat” value is 3.76. With `O=C(CN1C(=O)NC2(CCCC2)C1=O)OCC(=O)c1ccc(Cl)s1` the figure was 4.44. As to `O=C1CCC(C(=O)OCC(=O)c2ccc3c(c2)NC(=O)CO3)=NN1`, the “apparent turnover number kcat” value was 3.53. Then `CCN1C(=O)C(=O)N(CC(=O)c2cc(C)n(-c3ccccc3)c2C)C1=O`, with 3.73; and `COc1ccc(C(=O)Cn2cnc3ccccc3c2=O)cc1OC`, with 4.21; and `O=C1c2cc(S(=O)(=O)N3CCOCC3)ccc2-c2ccc(S(=O)(=O)N3CCOCC3)cc21`, with 0.00408.

With `Cc1[nH]c2ccccc2c1C(=O)COC(=O)CN1CCCCCC1=O`, the “apparent turnover number kcat” value turned out to be 7.87. Then `COc1ccc(CC(=O)c2c(O)cc(O)cc2O)cc1OC`, with 8.48; and `O=C(Cn1cnc2ccccc2c1=O)OCC(=O)c1ccccc1`, with 5.93. With `N#Cc1nc2ccccc2n1CC(=O)c1ccc2c(c1)OCCO2` the figure was 5.24; with `COc1ccccc1NC=C1C(=O)CC(c2ccccc2)CC1=O` (stereo not drawn), 4.2; with `O=C(CN1C(=O)c2ccccc2C1=O)c1ccc(O)cc1O`, 3.77. With `Cc1ccc(C(=O)C2=C(O)C(=O)N(C)C2c2cccc([N+](=O)[O-])c2)cc1` (stereo not drawn) the figure was 7.04; with `CC(C)CC(C(=O)C(C#N)=C1Nc2ccccc2N1)N1C(=O)c2ccccc2C1=O` (stereo not drawn), 4.

On to `Cc1cc(O)cc(O)c1C(=O)Cc1cnn(-c2ccccc2)c1`, for which the “apparent turnover number kcat” value came out at 3.18. `O=C(COc1ccc2ccc(=O)oc2c1)c1cccc([N+](=O)[O-])c1`: the “apparent turnover number kcat” value came to 3.49. `O=C(Cn1nc(-c2cccs2)oc1=O)c1ccc(N2CCCC2=O)cc1`: the “apparent turnover number kcat” value turned out to be 5.14. With `CC(=O)c1ccc(NC(=O)COC(=O)c2n[nH]c3ccccc23)cc1` the figure was 3.56; with `Cc1cccc(C(=O)NCC(=O)OCC(=O)c2ccc([N+](=O)[O-])cc2)c1`, 3.38; with `Cc1sc2nc(SCC(=O)c3ccc(O)c(O)c3)[nH]c(=O)c2c1C`, 4.84. Then `O=C(CON1C(=O)c2ccccc2C1=O)c1ccc(O)cc1O`, with 8.35. Then `COc1ccc(O)c(C(=O)c2cc(C#N)c(=O)n(-c3ccccc3F)c2)c1`, with 2.35. Turning to `CC1(C)CC(=O)C(C(=O)CC2CC(=O)NC(=O)C2)C(=O)C1`, the “apparent turnover number kcat” value came out at 5.38. On to `C=CCN1C(=O)C(O)=C(C(=O)c2ccc(Cl)cc2)C1c1ccc([N+](=O)[O-])cc1` (stereo not drawn), for which the “apparent turnover number kcat” value was found to be 6.51. With `CCc1c(C#N)c(SCC(=O)c2ccc3c(c2)OCO3)nc2c1C(=O)CC(C)(C)C2` the figure was 4.27; with `Cc1ccc(C(=O)COC(=O)CCN2C(=O)c3c(Cl)c(Cl)c(Cl)c(Cl)c3C2=O)cc1`, 3.65. As for `O=C(C=Cc1ccccc1)OCC(=O)c1ccc([N+](=O)[O-])cc1`, the “apparent turnover number kcat” value worked out at 4.69.
